Source: PubChem BioAssay AID504444 (National Center for Advancing Translational Sciences (NCATS), 2011)
About 7,500 (2.1%) of roughly 360,000 compounds were called active. This list was built around the results that the source calls inconclusive (neither active nor inactive); the mix of calls is not that of the screen. The call rests on the fitted dose curve; in most records, active means well fitted inhibition curve with a large enough effect; inconclusive means small, poorly fitted or top-dose-only effect, or effect the other way; inactive means flat fitted curve, though single readings scatter. A potency beside an inconclusive call is a rough fit, not a confirmed value.
On the % scale 0 is the no-effect control and ±100 the full control effect; potency means the concentration at half of the fitted maximal effect.

Assay: Nrf2 qHTS screen for inhibitors; further: nearly all actives have a fitted effect of over 60% in size
Settings: A549 ARE-Fluc reporter, luciferase luminescence, 18-24 h; activity change, negative = inhibition: at 46 µM (top of the series)
How it was run: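 Nrf2 activity is the BugLite luminescence, read 15 min after reagent at room temperature, following CellTiter-Fluor cytotoxicity readout (30 min, 37C). Compound titrations were applied for 18-24 h to 5000 A549 ARE_Fluc cells/well in 5% FBS OPTI-MEM.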
With `Cn1ncc(Br)c1NC(=O)CSc1ccc(Cl)cc1` the Potency was inconclusive: 25.9 µM [falling, partial curve, poor fit].
In the case of `Nc1c(C(=O)Nc2cccc(F)c2)nnn1-c1ccc2c(c1)OCCO2`, the Potency is reported as inconclusive: 6.51 µM [activator, partial curve, poor fit].
With `COCc1ccc(C(=O)NC2CC(C)(C)Cc3c2cnn3-c2ccc(C)cc2)o1` (centres undefined) the Potency was inconclusive: 29.1 µM [falling, single point].
In the case of `Nc1cccn2c(-c3ccc(Cl)c(Cl)c3)cnc12`, the Potency is reported as inconclusive: 29.1 µM [activator, single point].
In the case of `COc1cc(CN(C(=O)c2ccc(OC(C)C)cc2)c2ccccn2)cc(OC)c1OC`, the Potency is reported as active: 5.17 µM.
With `CCOC(=O)c1cc(-c2ccccc2)sc1NC(=O)CSc1nncs1` the Potency was inconclusive: 13 µM [falling, partial curve, poor fit].
In the case of `CC(=O)N1CCc2cc(S(=O)(=O)NCCC3=CCCCC3)ccc21`, the Potency is reported as active: 3.66 µM.
In the case of `CCOc1ccc(OCc2ccc(C(=O)N(CC)CC)cc2)cc1`, the Potency is reported as inconclusive: 29.1 µM [falling, single point].
For `O=C1C2C3C=CC(c4ccccc4)(C2C(=O)N1c1cccc(Cl)c1)C1C(=O)N(c2cccc(Cl)c2)C(=O)C31` (centres undefined), the Potency was inconclusive: 18.4 µM [falling, partial curve, poor fit].
For `COC(=O)c1ccc(NC(=O)C2CCN(c3ncnc4c3nc3n4CCCCC3)CC2)cc1`, the Potency was inconclusive: 11.6 µM [falling, single point].
In the case of `N#Cc1ccccc1OCC(=O)Nc1cccc(S(=O)(=O)N2CCCCCC2)c1`, the “activity change, negative = inhibition” value is reported as inactive: -13.9%.
For `Cc1cccc(C(=O)NC(=O)Nc2c(C)cc(C)nc2C)c1`, the Potency was inconclusive: 5.17 µM [activator, full curve].
With `CCCSc1nc2sc3c(c2c(=O)n1CC)CC(C)(C)OC3` the Potency was inconclusive: 16.4 µM [falling, single point].
With `COc1ccccc1NC(=O)CSc1nc2c(oc3ccccc32)c(=O)n1-c1ccccc1F` the Potency was inconclusive: 0.184 µM [falling, full curve, poor fit].
In the case of `COC(=O)C1C(=O)C2=C(CC1C)NC(C)=C(C(=O)OC1CCCCC1)C2c1ccc(N(C)C)cc1` (centres undefined), the Potency is reported as inconclusive: 18.4 µM [falling, single point].
With `Cc1ccc(CSCC(=O)N2CCOCC2)cc1` the Potency was inconclusive: 11.6 µM [activator, single point].
In the case of `Cc1cc2oc(C(=O)N(Cc3ccc(N(C)C)cc3)CC3CCCO3)c(C)c2cc1Cl` (centres undefined), the “activity change, negative = inhibition” value is reported as inactive: -15%.
For `CC(C)(C)n1nnnc1C(c1cccnc1)N(Cc1ccccc1)Cc1cccs1` (centres undefined), the Potency was inconclusive: 29.1 µM [falling, single point].
With `CN1CCN(S(=O)(=O)c2cccc(C(=O)Nc3sc4c(c3C(N)=O)CCCC4)c2)CC1` the Potency was inconclusive: 23.1 µM [falling, single point].
With `COc1ccc(NC(=O)c2oc3ccccc3c2NC(=O)c2cc(C)cc(C)c2)c(OC)c1` the “activity change, negative = inhibition” value was inactive: -1.79%.
In the case of `Cc1ncc([N+](=O)[O-])n1CCOC(=O)NC(NCc1ccccc1Cl)C(Cl)(Cl)Cl` (centres undefined), the “activity change, negative = inhibition” value is reported as inactive: 3.72%.
With `Cc1ccc(SCC(CC(C)C)N2CCN(CCc3ccccc3)CCC2=O)cc1` (centres undefined) the Potency was inconclusive: 29.1 µM [falling, single point].
With `COc1ccc(NC2=C(Cl)C(=O)N(CCc3ccccc3)C2=O)cc1` the “activity change, negative = inhibition” value was inactive: 1.65%.
With `C/C(=N\NC(=O)COc1ccc(C(C)(C)C)cc1)c1ccc2c(c1)OCCO2` the “activity change, negative = inhibition” value was inactive: -6.64%.
With `CCN1C(=S)N[C@@H](c2ccccc2)C(C(=O)OC)=C1C` the “activity change, negative = inhibition” value was inactive: -9.46%.
In the case of `O=C(CCSc1ccccn1)Nc1ccc(Br)cc1`, the Potency is reported as inconclusive: 7.31 µM [activator, partial curve].
For `Cc1c(NC(=O)C2C3C=CC(C3)C2C(=O)O)c(=O)n(-c2ccccc2)n1C` (centres undefined), the Potency was inconclusive: 0.0731 µM [falling, partial curve, poor fit].
In the case of `CN(CC(=O)Nc1ccc(Br)cc1)S(=O)(=O)c1cccc2nsnc12`, the Potency is reported as inconclusive: 29.1 µM [falling, single point].
In the case of `COc1cccc(/C(O)=C2/C(=O)C(=O)N(c3cc(C)on3)C2c2cccs2)c1` (centres undefined), the Potency is reported as inconclusive: 18.4 µM [falling, single point].
In the case of `O=C(Nc1ccc2ccccc2c1)c1cccc(F)c1`, the Potency is reported as inconclusive: 7.31 µM [activator, partial curve].
For `O=C(NCCc1ccccn1)c1cc2ccccc2o1`, the Potency was inconclusive: 20.6 µM [activator, single point].
In the case of `COc1ccc(CC(=O)NC(C)c2ccc(Cl)c(Cl)c2)cc1S(=O)(=O)N1CCOCC1` (centres undefined), the Potency is reported as inconclusive: 18.4 µM [falling, single point].
For `COCCNC(=O)c1sc2ncn(CC(=O)Nc3ccc(C)c(Cl)c3)c(=O)c2c1C`, the Potency was inconclusive: 29.1 µM [activator, single point].
With `CC1(C)C(=O)N(c2ccccc2)C1c1ccccc1O` (centres undefined) the Potency was inconclusive: 18.4 µM [falling, single point].
For `COc1ccc(N2CCN(C(=O)CCCn3c(=O)[nH]c4cc(Cl)ccc4c3=O)CC2)cc1`, the Potency was inconclusive: 23.1 µM [falling, partial curve, poor fit].
In the case of `O=C(NCCCN1CCOCC1)c1c(-c2ccccc2)sc2ccccc12`, the Potency is reported as inconclusive: 20.6 µM [activator, partial curve, poor fit].
For `C=CCN(CC=C)S(=O)(=O)c1ccc(C(=O)Nc2nnc(CSC)o2)cc1`, the Potency was inconclusive: 23.1 µM [falling, partial curve, poor fit].
For `CCOc1ccccc1NC(=O)CN(Cc1ccccc1)S(C)(=O)=O`, the Potency was inconclusive: 5.8 µM [falling, partial curve, poor fit].
With `Cc1ccc(OCc2nc(C#N)c(NCCc3ccccc3)o2)cc1` the Potency was inconclusive: 1.3 µM [falling, partial curve, poor fit].
In the case of `CCC(Sc1ncc(S(=O)(=O)c2ccc(Cl)cc2)c(=O)[nH]1)C(=O)Nc1ccc(OC)cc1` (centres undefined), the “activity change, negative = inhibition” value is reported as inactive: 5.89%.
With `O=C(NCc1ccncc1)C(=O)NCC1OCCN1S(=O)(=O)c1ccc(Br)cc1` (centres undefined) the Potency was inconclusive: 9.2 µM [falling, partial curve, poor fit].
For `COc1ccc(-n2nnnc2SCC(=O)Nc2nc3c(s2)CCCC3)cc1`, the Potency was active: 16.4 µM.
In the case of `C(=N/N1CCN(c2ccccc2)CC1)/c1ccncc1`, the Potency is reported as inconclusive: 13 µM [falling, partial curve, poor fit].
With `CCOc1ccc(C2C3=C(CCCC3=O)Nc3ccc4ncccc4c32)cc1` (centres undefined) the Potency was inconclusive: 0.0052 µM [falling, full curve, poor fit].
For `CCOC(=O)Nc1ccc(Cc2ccncc2)cc1`, the Potency was inconclusive: 2.91 µM [activator, partial curve, poor fit].
For `Cc1cc(C)c(NC(=O)C(=O)NCC(c2cccnc2)N2CCN(c3ccccc3F)CC2)c(C)c1` (centres undefined), the Potency was inconclusive: 29.1 µM [activator, single point].
In the case of `C=CCc1ccccc1OCC(=O)N/N=C/c1ccc(OC(C)=O)cc1OC(C)=O`, the Potency is reported as inconclusive: 32.6 µM [falling, single point].
For `COc1ccc(/C=C2\NC(=S)N(CC3CCCO3)C2=O)c(OC)c1` (centres undefined), the Potency was inconclusive: 1.46 µM [activator, full curve].
With `O=C(Nc1ccc(F)cc1)c1ccc(CN2CCc3ccccc3C2)cc1` the Potency was active: 5.8 µM.
In the case of `C=CC[C@]12C=C(OC)C(=O)C=C1O[C@@H](c1ccc3c(c1)OCO3)[C@H]2C`, the “activity change, negative = inhibition” value is reported as inactive: -6.44%.
In the case of `O=C(NCCN1CCOCC1)c1ccc(Cl)c(S(=O)(=O)N2CCCCCC2)c1`, the Potency is reported as inconclusive: 36.6 µM [falling, partial curve, poor fit].
In the case of `COc1ccc(C2/C=C\CN(C(=O)CC(C)(C)C)CC(=O)N2Cc2ccc(F)cc2)cc1` (centres undefined), the Potency is reported as inconclusive: 32.6 µM [falling, single point].
In the case of `COc1ccccc1Nc1nc(N2CCCC2)nc(N2CCOCC2)n1`, the Potency is reported as inconclusive: 29.1 µM [activator, single point].
For `Cc1ccc(CNC(=O)c2cc3c(-c4ccc(Cl)cc4)nn(C)c3s2)o1`, the Potency was inconclusive: 29.1 µM [falling, single point].
In the case of `Nc1ncnc2c1ncn2CCc1ccccc1`, the Potency is reported as inconclusive: 14.6 µM [activator, partial curve, poor fit].
For `O=C(Cc1ccc(NS(=O)(=O)c2ccc(F)cc2)cc1)NCc1cccnc1`, the Potency was inconclusive: 9.2 µM [falling, partial curve, poor fit].
For `CC(=NNc1nc2ccccc2s1)c1ncccn1`, the Potency was inconclusive: 2.31 µM [falling, partial curve, poor fit].
In the case of `COc1ccc(CCNC(=S)NC(=O)c2cc(OC)c(OC)c(OC)c2)cc1OC`, the “activity change, negative = inhibition” value is reported as inactive: -1.57%.
In the case of `COC(=O)c1ccc(N=NNc2ccc(C(=O)OC)cc2)cc1`, the Potency is reported as inconclusive: 0.731 µM [activator, full curve].
For `CC1(C)CC(=O)C2=C(C1)NC(Nc1nc3ccccc3o1)=NC2c1cccc(O)c1` (centres undefined), the Potency was active: 20.6 µM.
For `Cc1ccc(S(=O)(=O)N2CCC(C(=O)Nc3ccc(S(=O)(=O)N4CCCC4)cc3)CC2)cc1C`, the Potency was inconclusive: 8.2 µM [falling, partial curve].
In the case of `CCOc1ccc(CCNC(=O)Cn2ccc3cc(S(=O)(=O)N4CCCCC4)ccc32)cc1`, the Potency is reported as inconclusive: 29.1 µM [falling, single point].
In the case of `Cc1ccc(C(=O)O/N=C(\N)Cc2ccc([N+](=O)[O-])cc2)c(Cl)c1`, the Potency is reported as inconclusive: 23.1 µM [falling, single point].
For `COc1ccc(C(=O)N2C(=S)NC(=O)/C2=C\c2ccc(C)cc2)cc1`, the Potency was inconclusive: 2.06 µM [falling, partial curve, poor fit].
